Results reported in PMC12670160, “A drug-repurposing screen of FDA- and EMA-approved drugs identifies two NF-κB inhibitors active against eumycetoma” (Journal of Antimicrobial Chemotherapy, 2025).
Where a name gives a salt, the structure may show the parent alone. Among all 5,300 compounds or so, about 130 (2.5%) showed an effect of 50% or more. The list shows a part of the results. Peptide text beside a SMILES is read from it.

Tested on: M. mycetomatis strain mm55
Conditions: primary screen, metabolic activity vs growth control; 96 h, 2 µM; inhibitor

Row | SMILES | % viability
1 | COc1ccc(-c2ccc3c(N4CCOC[C@@H]4C)nc(N4CCOC[C@@H]4C)nc3n2)cc1CO [ONC0004858, azd8055] | 116%
2 | COc1cc(C(=O)OCCCN2CCCN(CCCOC(=O)c3cc(OC)c(OC)c(OC)c3)CC2)cc(OC)c1OC [ONC0003640, dilazep] | 75.17%
3 | COC(=O)C1=C(C)NC(C)=C([N+](=O)[O-])C1c1ccccc1C(F)(F)F (stereo not shown) [ONC0000082, bayk8644] | 91.53%
4 | CC(C)Cc1ccc(C(C)C(=O)O)cc1.NCCCC[C@H](N)C(=O)O (stereo not shown) [ONC0004512, ibuprofen lysine neoprofen] | 55.08%
5 | O=C1C[C@@H](c2ccccc2)Oc2cc(O)cc(O)c21 [ONC0005480, pinocembrin] | 81.43%
6 | Cc1ccc(S(=O)(=O)c2ccc([N+](=O)[O-])o2)cc1 [ONC0005071, nsc697923] | 75.2%
7 | COc1cc2c(cc1OC)C(C)NCC2 (stereo not shown) [ONC0002871, isoquinoline67dimethoxy1methyl1234tetrahydro] | 145%
8 | CN(C)C/C=C/C(=O)Nc1ccc(C(=O)Nc2cccc(Nc3ncc(Cl)c(-c4c[nH]c5ccccc45)n3)c2)cc1 [ONC0002074, thz1] | 55.81%
9 | NC(=O)CN1CCCC1=O [ONC0004070, piracetam] | 91.68%
10 | O=C1NC(=O)C(c2cnc3ccccn23)=C1c1cn2c3c(cc(F)cc13)CN(C(=O)N1CCCCC1)CC2 [ONC0001579, ly2090314] | 86.82%
11 | OCCN1CCN(CC/C=C2/c3ccccc3Sc3ccc(C(F)(F)F)cc32)CC1 [ONC0002016, flupentixol] | 115.8%
12 | N=C(N)NCCC[C@H](NC(=O)c1sccc1NS(=O)(=O)c1cccc2nsnc12)C(=O)O [ONC0004149, eg00229] | 88.01%
13 | O=C(NC[C@H](O)CN1CCc2ccccc2C1)c1cc(NC2COC2)ncn1 [ONC0001019, epz015666] | 70.16%
14 | COc1cc2ncnc(Sc3nnc(C)s3)c2cc1OC [ONC0005168, sklb1002] | 66.94%
15 | COC(=O)CN1CN(c2ccccc2)C2(CCN(Cc3ccc4ccccc4c3)CC2)C1=O [ONC0001693, nnc630532] | 73.91%
16 | CC[N+](C)(C)c1cccc(O)c1 [ONC0005337, edrophonium chloride] | 81.25%
17 | CC[C@H](C)C1NC(=O)[C@H](Cc2ccc(O)cc2)NC(=O)[C@@H](N)CSSC[C@@H](C(=O)N2CCC[C@H]2C(=O)N[C@@H](CC(C)C)C(=O)NCC(N)=O)NC(=O)[C@H](CC(N)=O)NC(=O)[C@H](CCC(N)=O)NC1=O (stereo partly shown) [ONC0002223, oxytocin acetate] | 111%
18 | CC(C)CC1NC(=O)C(C(C)C)NC(=O)C2CCCN2C(=O)C(CC(=O)O)NC(=O)C(Cc2c[nH]c3ccccc23)NC1=O (stereo not shown) [ONC0004583, bq123] (cyclo(DPVLW); configuration not given here) | 106.9%
19 | C[C@@H]1Cc2c([nH]c3ccccc23)[C@@H](c2c(F)cc(/C=C/C(=O)O)cc2F)N1CC(C)(C)F [ONC0001011, azd9496] | 65.13%

Row | SMILES | % viability
20 | CC(=O)Nc1cccc(-n2c(=O)n(C3CC3)c(=O)c3c(Nc4ccc(I)cc4F)n(C)c(=O)c(C)c32)c1 [ONC0002244, trametinib] | 96.55%
21 | C[C@@H](NCCCc1cccc(C(F)(F)F)c1)c1cccc2ccccc12 [ONC0004729, amg073 hcl cinacalcet hydrochloride] | 102.1%
22 | CC(=O)[C@@]1(O)CC[C@H]2[C@@H]3C=C(Cl)C4=CC(=O)[C@@H]5C[C@@H]5[C@]4(C)[C@H]3CC[C@@]21C [ONC0002332, cyproterone] | 91.86%
23 | COc1cccc(CN2C[Si](C)(C)O[Si](C)(C)C2)c1 [ONC0005443, compound58112] | 71%
24 | O=C[C@H](O)[C@@H](O)[C@H](O)[C@H](O)CO [ONC0004668, dextrose dglucose] | 120.7%
25 | OC(Cn1cncn1)(Cn1cncn1)c1ccc(F)cc1F [ONC0005572, fluconazole] | 73.77%
26 | CCCCN(CC)c1c([N+](=O)[O-])cc(C(F)(F)F)cc1[N+](=O)[O-] [ONC0005308, benfluralin] | 131%
27 | CCOC(=O)Nc1ccc2c(c1)N(C(=O)CCN(CC)CC)c1ccccc1S2 [ONC0003266, ethacizin] | 75.23%
28 | NCCc1c[nH]cn1 [ONC0000370, histamine dihydrochloride] | 82.94%
29 | Cc1ccc(-c2csc3ncnc(SCCC(=O)O)c23)cc1 [ONC0001669, ttp22] | 87.44%
30 | CC(C)=CCC[C@](C)(O[C@@H]1O[C@H](CO)[C@@H](O)[C@H](O)[C@H]1O)[C@H]1CC[C@]2(C)[C@@H]1[C@H](O)C[C@@H]1[C@@]3(C)CC[C@H](O)C(C)(C)[C@@H]3CC[C@]12C [ONC0002211, ginsenoside ck] | 95.28%
31 | CCN[C@H]1CN(CCCOC)S(=O)(=O)c2sc(S(N)(=O)=O)cc21 [ONC0004510, brinzolamide] | 60.19%
32 | Cc1ncc(C[n+]2csc(CCO)c2C)c(N)n1 [ONC0004188, thiamine hydrochloride] | 71.41%
33 | COc1ccc2c(C(=S)N(C)CC(=O)O)cccc2c1C(F)(F)F [ONC0001130, tolrestat] | 91.42%
34 | CC(C)(N)CO.Cn1c(=O)c2[nH]c(Br)nc2n(C)c1=O [ONC0003989, pamabrom] | 96.32%
35 | C=CC(N)CCC(=O)O (stereo not shown) [ONC0003417, vigabatrin] | 74.89%
36 | NS(=O)(=O)c1cc(C2(O)NC(=O)c3ccccc32)ccc1Cl (stereo not shown) [ONC0000305, chlorthalidone] | 91.53%
37 | COc1cc(OC)cc(-c2ccc3c(-c4ccc(F)cc4)n[nH]c3n2)c1 [ONC0001726, apck110] | 106.3%

8 compounds already listed, arranged by length of the SMILES, falling:
Row | SMILES | % viability
22 | CC(=O)[C@@]1(O)CC[C@H]2[C@@H]3C=C(Cl)C4=CC(=O)[C@@H]5C[C@@H]5[C@]4(C)[C@H]3CC[C@@]21C [ONC0002332, cyproterone] | 91.86%
31 | CCN[C@H]1CN(CCCOC)S(=O)(=O)c2sc(S(N)(=O)=O)cc21 [ONC0004510, brinzolamide] | 60.19%
33 | COc1ccc2c(C(=S)N(C)CC(=O)O)cccc2c1C(F)(F)F [ONC0001130, tolrestat] | 91.42%
23 | COc1cccc(CN2C[Si](C)(C)O[Si](C)(C)C2)c1 [ONC0005443, compound58112] | 71%
24 | O=C[C@H](O)[C@@H](O)[C@H](O)[C@H](O)CO [ONC0004668, dextrose dglucose] | 120.7%
25 | OC(Cn1cncn1)(Cn1cncn1)c1ccc(F)cc1F [ONC0005572, fluconazole] | 73.77%
35 | C=CC(N)CCC(=O)O (stereo not shown) [ONC0003417, vigabatrin] | 74.89%
28 | NCCc1c[nH]cn1 [ONC0000370, histamine dihydrochloride] | 82.94%
